Article PMC7132099
Results are given in words; binding and its absence hold for the method and conditions named. For some assays here: Binding seen in cells or lysates may run through a third protein. Some binding calls cover weakened binding; strength is not graded here.

The chains behind the UniProt entries cited, without tags or fusion partners.
UniProt Q80Y73: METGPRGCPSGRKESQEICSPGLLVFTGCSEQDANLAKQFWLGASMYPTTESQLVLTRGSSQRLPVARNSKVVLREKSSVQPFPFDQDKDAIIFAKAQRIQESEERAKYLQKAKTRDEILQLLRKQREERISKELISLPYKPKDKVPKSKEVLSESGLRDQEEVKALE

Legend:
[1] = molecular target: recombinant HOATZ-FLAG (mouse) (UniProt Q80Y73); assay: sucrose density gradient centrifugation; whole-cell lysate of 293T cells overexpressing HOATZ-FLAG fractionated on a sucrose gradient; western blot of the fractions
[2] = molecular target: HOATZ (Hoatzin; product of 4833427G06Rik) (mouse (endogenous in testis)) (UniProt Q80Y73); assay: co-IP; testis lysates immunoprecipitated with the anti-HOATZ antibody; eluates blotted for ENO4 and HOATZ

| binding [1] | binding [2] | Molecule |
| --- | --- | --- |
| no binding |  | recombinant HOATZ-FLAG (from UniProt Q80Y73 1-168) |
|  | binds | enolase 4 (ENO4) (enzyme, UniProt Q8C042 1-619) MGDEDGGRRGGITRDLQKLKQQAMAYYQENDVPRKLEDLLNSTFYLQPADVYGHLKANYFSKLAKPPSICKIVGKTILDGLGLPTLQVEISCTIQNFPKYICAVAIPTHFEVVENALPEALDAEDSERAQAVNTAVQWINQSITEELWGLVPSNQAEVDHRLRTFFEHKVQEDKERKELEKSQEELVPAPPPVTLPPPPPPPPPPPSKKKGQKAGRRDTLLEKPVSPPEPPEPVLHGSMAIGAVSLAVAKASATLASDPLYLTLASLKHDQEQPSTFSMPLLMGSVLSCGKSSPGKLHLMKEVICIPSPGLTAKQSVELLLEIQKQVNRAMETLPPPKQETKKGHNGSKRAQPPITGKVSHLGCLTINYDAIEQPLLLLQGICSNLGLELGVNFHLAINCAGHELMDYSKGKYEVMVGTHKSAAEMVELYVDLINKYPSIIALIDPFRKEDAEQWDSLYAALASRCYLIAGAASGSVSKLLECRNISTLKSHGLIIKHTNQTTMSDLVEITHLINGKKLLAVFGSTDSESSDDSLVDLAVGFGARFIKLGGLSRGERMTKYNRLLAIEEELIQRGVWGFSEEHNFSFFQEDATATMAEETLGLLDSIFPTEVIEESAKT |
